Measured values as given in PubChem BioAssay AID493014 (National Center for Advancing Translational Sciences (NCATS), 2011).
This is one part of the list. Further columns of the screen follow, without active or inactive calls. Compounds called inactive in the main read-out are mostly missing here. Words in brackets tell the shape of the fitted curve; partial curves, single points and poor fits give uncertain potencies.

Experiment: qHTS Assay to Find Inhibitors of Chronic Active B-Cell Receptor Signaling
Settings: ABC-DLBCL IkBa-CBG/CBR reporter, luminescence ratio (green luciferase fused to IkBa over red control in TMD8 lymphoma cells), 4 h
Procedure, shortened: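 Doxycycline induced both beetle luciferases in TMD8 lymphoma cells; IKK-driven degradation limits the IkappaBalpha-fused green signal, while red luminescence normalises for cell number and nonspecific effects. Compounds tested up to 46 uM, 4 hrs.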

[1] = measured here: CBR red luminescence, cell number

SMILES	AC50 [1]	AC50 (measured here: IkBa-CBG green luminescence)
CCS/C(N)=N/N=C/c1cc(C)ccc1O	18.4 µM [falling, single point]	29.1 µM [falling, single point]
COc1cccc(C(=O)Nc2c(C(N)=O)oc3ccccc23)c1	1.46 µM [falling, partial curve]	–
COc1cc(/C(C)=N/NC(=O)CSc2nc3ccccc3[nH]2)ccc1O	35.5 µM [falling, single point]	–
O=C(Nc1ccccc1)c1cccc(N2C(=O)C3C4C=CC(C4)C3C2=O)c1 (stereo not given)	12.6 µM [falling, partial curve]	–
CC1C(=O)N(Cc2ccc(F)cc2)c2ccccc2N1C(=O)c1c(F)cccc1F (stereo not given)	22.4 µM [falling, single point]	–
CCc1cc(C(=O)Nc2ccc(OC)nc2)sc1C	2.91 µM [rising, partial curve, poor fit]	–
COc1ccccc1NC(=O)C1=C(C)Nc2nnnn2C1c1cccc(Br)c1 (stereo not given)	11.2 µM [falling, partial curve]	–
CCOC(=O)c1csc(NC(=O)c2ccc(OCC)cc2)n1	11.2 µM [falling, partial curve]	–
COc1ccccc1-c1ccc(Nc2ccc(C(=O)N3CCOCC3)cc2)nn1	8.2 µM [falling, partial curve]	–
CN(c1ccccc1)S(=O)(=O)c1ccc(Cl)c(C(=O)Nc2ccc(-c3nc4ccccc4[nH]3)cc2)c1	2.31 µM [falling, full curve]	–
Cn1cnnc1SCC(=O)Nc1ccc(S(=O)(=O)N2CCCC2)cc1	10.3 µM [falling, partial curve, poor fit]	–
O=C(O)/C=C/C(=O)NC1CCS(=O)(=O)C1 (stereo not given)	0.731 µM [falling, partial curve, poor fit]	–
O=C(CSc1nc2ccccc2[nH]1)Nc1ccc2c(c1)CCC2	29.1 µM [falling, single point]	–
Cc1[nH]c2ccc(F)cc2c1CCN1C(=O)OC(C)(C)C1(C)O (stereo not given)	1.12 µM [rising, partial curve, poor fit]	–
O=C1COc2ccc(C(=O)COC(=O)/C=C/c3ccc(Br)o3)cc2N1	5.17 µM [rising, full curve]	–
CN(C)CC/C=C1/c2ccccc2COc2ccccc21	25.1 µM [falling, single point]	–
O=C(Oc1ccc(-c2nnco2)cc1)N(c1ccccc1)c1ccccc1	1.16 µM [rising, partial curve, poor fit]	–

SMILES	AC50 [1]	AC50 (measured here: IkBa-CBG green luminescence)
CC1=C/C(=C(/c2ccc(O)c(C)c2)c2ccccc2S(=O)(=O)O)C=CC1=O	16.4 µM [rising, single point]	–
O=C1CSC(=S)N1c1ccc(O)cc1	10 µM [falling, partial curve, poor fit]	–
CN(Cc1ccccc1)C(=O)CCCn1c(=O)c2cccn2c2cccnc21	0.562 µM [rising, full curve]	–
O=C(NOCc1ccccc1)c1ccc(Cl)cc1Cl	0.517 µM [rising, full curve, poor fit]	–
CN(C(=O)CSc1nnc(N)s1)C1CCCCC1	14.1 µM [rising, single point]	–
CCO[C@H]1OC(C(=O)N2CCCCCCC2)=C[C@@H](c2csc3ccccc23)[C@@H]1CCCO	0.0891 µM [falling, full curve, poor fit]	–
COc1ccccc1N1CC(C(=O)Nc2ccc(N3CCOCC3)cc2)CC1=O (stereo not given)	0.58 µM [rising, full curve]	–
CC(C)c1ccc(C(=O)NCc2ccc(Cl)cc2)cc1	14.6 µM [rising, partial curve]	–
COc1cc(C(N)=O)cc(Cl)c1OCc1ccccc1	16.4 µM [rising, partial curve]	–
O=C1N/C(=C/c2cccs2)C(=O)N1Cc1ccccc1F	0.501 µM [falling, full curve, poor fit]	–
Cc1ccc(-n2cc(CN3CCC(CO)(Cc4ccccc4)CC3)cn2)cc1	0.282 µM [falling, partial curve, poor fit]	–
COC(=O)c1ccc(-c2nc3cc(N)ccc3o2)cc1	2.59 µM [rising, partial curve]	–
O=c1oc2ccccc2c(N2CCCCC2)c1[N+](=O)[O-]	9.2 µM [falling, partial curve, poor fit]	–
S=C(NC1CC1)NC1CCCc2ccccc21 (stereo not given)	7.94 µM [falling, partial curve]	–
COc1ccc2[nH]c(C)c(CCNC(=S)Nc3ccc(F)cc3)c2c1	35.5 µM [falling, partial curve, poor fit]	–
COc1ccc(Cl)cc1NC(=O)CCCNC(=O)c1ccc(Cl)cc1	1.58 µM [rising, partial curve, poor fit]	–
O=C(c1ccc(Br)o1)N1CCN(c2ccccn2)CC1	1.3 µM [rising, full curve, poor fit]	–

Two of the compounds above, in CSV form:
SMILES,AC50 [1],AC50 (measured here: IkBa-CBG green luminescence)
CCO[C@H]1OC(C(=O)N2CCCCCCC2)=C[C@@H](c2csc3ccccc23)[C@@H]1CCCO,"0.0891 µM [falling, full curve, poor fit]",–
COc1ccccc1N1CC(C(=O)Nc2ccc(N3CCOCC3)cc2)CC1=O (stereo not given),"0.58 µM [rising, full curve]",–
